The values below are quoted from earlier work in patent publication US7875284B2, “Methods of manufacturing and modifying taxane coatings for implantable medical devices” (Cook Incorporated, priority 2006, dated 2011).

Molecules are shown by their SMILES.

The conditions of this series: 37° C. water, after about 5 hours; cited from earlier work.

`CC(=O)O[C@H]1C(=O)[C@@]2(C)[C@H]([C@H](OC(=O)c3ccccc3)[C@]3(O)C[C@H](OC(=O)[C@H](O)[C@@H](NC(=O)c4ccccc4)c4ccccc4)C(C)=C1C3(C)C)[C@]1(OC(C)=O)CO[C@@H]1C[C@@H]2O` [Anhydrous paclitaxel, paclitaxel]: the solubility in water result was “about 3.5 μg/mL”.

On to `CC(=O)O[C@H]1C(=O)[C@@]2(C)[C@H]([C@H](OC(=O)c3ccccc3)[C@]3(O)C[C@H](OC(=O)[C@H](O)[C@@H](NC(=O)c4ccccc4)c4ccccc4)C(C)=C1C3(C)C)[C@]1(OC(C)=O)CO[C@@H]1C[C@@H]2O` [dihydrate paclitaxel, paclitaxel], for which the solubility in water result is recorded as “less than 1.0 μg/mL”.
